Where “and” joins values, the source holds several entries; their conditions need not be identical. Identical values can stand only once. The inconclusive results got no clear call from the source; some entries with a clear call stand among them for comparison. Potencies beside an inconclusive call are fits to weak or partial responses and may not hold up. Calls of active or inactive are those of the source. How the source made its calls: active means hit-call score of the fitted dose curve at least 0.9, where 1 is the maximum; inconclusive means response in the unintended direction; inactive means score below 0.9.
What follows are compounds tested on turtle Androgen Receptor (AR), gene 101947425 (assay: ATG_trAR_XSP1: Attagene TRANS-FACTORIAL Multi-Species (XSP1) HepG2 Assay for turtle Androgen Receptor (AR) (AID 2283786)).
Experimental: ATG_XSP1_multi-species_TRANS is a cell-based, multiplexed assay created by modifying the existing Attagene TRANS-FACTORIAL system to include a panel of nuclear receptors from some or all the following species: human (Homo sapiens), mouse (Mus musculus), frog (Xenopus laevis), zebrafish (Danio rerio), chicken (Gallus gallus), and turtle (Chrysemys picta). The ECOTOX-FACTORIAL format uses HepG2, a human liver cell line, with measurements taken at 24 hours after chemical dosing in a 24-well plate. Xsp1 included 3 nM 6-alpha-fluorotestosterone to partially stimulate the androgen receptor.ATG_trAR_XSP1 is one of 29 assay components measured or calculated from the ATG_XSP1_multi-species_TRANS assay. It is designed to make measurements of mRNA induction, a form of inducible reporter, as detected with fluorescence intensity signals by Reverse transcription polymerase chain reaction (RT-PCR) and Capillary electrophoresis technology.The assay endpoint ATG_trAR_XSP1 was analyzed in the positive analysis fitting direction relative to DMSO as the negative control and baseline of activity. Using a type of inducible reporter, measures of mRNA for gain-of-signal activity can be used to understand the reporter gene at the transcription factor-level as they relate to the gene AR. Furthermore, this assay endpoint can be referred to as a primary readout, because this assay has produced multiple assay endpoints where this one serves a reporter gene function. To generalize the intended target to other relatable targets, this assay endpoint is annotated to the nuclear receptor intended target family, where the subfamily is steroidal.
Human liver HepG2 cells are transiently transfected with multiple reporter transcription units (MRTUs) in 6-well plates using FuGene 6 reagent (Roche; 3 ml FuGene/1 mg DNA). The MRTU constructs are regulated by a cis-regulating element (promoter). […] A major difference between the CIS and TRANS system is that in CIS activities of endogenous TFs are measured, whereas the TRANS assay evaluates changes in activities of exogenous, chimeric NR-Gal4 proteins. […] At the end of 24 hour incubation, total RNA was isolated using TriZol reagent (Invitrogen). The isolated RNA is then reverse-transcribed using oligo(dT) primer and Mo-MLV reverse transcriptase (Invitrogen) with DNAse I (Ambion) treatment for 30 min. The one-tenth of the produced cDNA was amplified by PCR using Taq DNA polymerase (Invitrogen) and two reporter sequence-specific primers. The PCR products were fluorescently labeled by primer extension with 6-arboxyfluorescein (6-FAM) 5'-labeled reporter sequence-specific primer (2 min at 95 C, 20 s at 68 C and 10 min at 72 C) and these products were digested with 5U of HpaI (New England Biolabs) for 2h at 37 C. The fragments were purified using Qiaquick PCR columns (Qiagen), analyzed on an ABI 3130xL genetic analyzer (Applied Biosystems) with peak positions identified by using a set of X-rhodamine (ROX)-labeled MapMarker1000 molecular weight standards (BioVentures). The raw capillary electrophoresis data was processed using Attagraph software (Attagene).
For `CC(C)Oc1cc(-n2nc(C(C)(C)C)oc2=O)c(Cl)cc1Cl`, the outcome was “inactive”.
`CCCCCOC(=O)c1ccccc1C(=O)OCCCCC` was tested, and the outcome was “inactive”.
For `CCCOCC(=Nc1ccc(Cl)cc1C(F)(F)F)n1ccnc1`, the AC50 was inconclusive: 4.62 µM.
`CCN(CC)C(=O)C(C)Oc1cccc2ccccc12` (stereo not given) was tested, and the AC50 was inconclusive: 55.1 µM.
For `O=S1OCC2C(CO1)C1(Cl)C(Cl)=C(Cl)C2(Cl)C1(Cl)Cl` (stereo not given), the AC50 was inconclusive: 10 µM.
With `C[C@]12CCC(=O)C[C@@H]1CC[C@@H]1[C@@H]2CC[C@]2(C)[C@@H](O)CC[C@@H]12` the AC50 was active: 0.168 µM.
With `CO/C=C(/C(=O)OC)c1ccccc1Oc1cc(Oc2ccccc2C#N)ncn1` the AC50 was inconclusive: 1 µM.
With `COP(=S)(OC)Oc1ccc(SC)c(C)c1` the AC50 was inconclusive: 31.3 µM.
In the case of `CC1(C)CCC(=Cc2ccc(Cl)cc2)C1(O)Cn1cncn1` (stereo not given), the AC50 is reported as inconclusive: 6.34 µM.
For `CC(C)(O)C(=O)Nc1ccc([N+](=O)[O-])c(C(F)(F)F)c1`, the AC50 was inconclusive: 2.62 µM.
`Cc1c(COC(=O)[C@@H]2[C@H](/C=C(\Cl)C(F)(F)F)C2(C)C)cccc1-c1ccccc1` was tested, and the outcome was “inactive”.
For `C=CC1(C)OC(=O)N(c2cc(Cl)cc(Cl)c2)C1=O` (stereo not given), the AC50 was inconclusive: 4.05 µM.
For `CCCN(CCC)c1c([N+](=O)[O-])cc(S(N)(=O)=O)cc1[N+](=O)[O-]`, the outcome was “inactive”.
`Oc1ccc(C(c2ccc(O)cc2)(C(F)(F)F)C(F)(F)F)cc1` was tested, and the AC50 was inconclusive: 8.34 µM and inconclusive: 1.67 µM.
With `Oc1cc(Cl)ccc1Oc1ccc(Cl)cc1Cl` the AC50 was inconclusive: 4.15 µM.
In the case of `Oc1ccc(Cl)cc1Cc1ccccc1`, the AC50 is reported as inconclusive: 3.79 µM.
In the case of `CCCCNC(=O)OCC#CI`, the AC50 is reported as inconclusive: 6.92 µM.
For `C[C@]12CCC(=O)C=C1CC[C@@H]1[C@@H]2CC[C@]2(C)C(=O)CC[C@@H]12`, the AC50 was active: 658 nM and inconclusive: 100 nM.
In the case of `CON(C)C(=O)Nc1ccc(Cl)c(Cl)c1`, the AC50 is reported as inconclusive: 51.1 µM.
`CC(C)(C)c1cc(O)ccc1O` was tested, and the AC50 was inconclusive: 59.2 µM.
In the case of `O=C1C2(Cl)C3(Cl)C4(Cl)C(Cl)(Cl)C5(Cl)C3(Cl)C1(Cl)C5(Cl)C24Cl` (stereo not given), the AC50 is reported as inconclusive: 1.16 µM.
`CCC[CH2][Sn]([Cl])([CH2]CCC)[CH2]CCC` was tested, and the AC50 was inconclusive: 0.578 µM.
For `CC12CC1(C)C(=O)N(c1cc(Cl)cc(Cl)c1)C2=O` (stereo not given), the AC50 was inconclusive: 28.8 µM.
For `CC(C)NC(=O)N1CC(=O)N(c2cc(Cl)cc(Cl)c2)C1=O`, the AC50 was inconclusive: 158 µM.
`C[C@]12C=CC3=C4CCC(=O)C=C4CC[C@H]3[C@@H]1CC[C@@H]2O` was tested, and the AC50 was active: 0.00552 µM.
`CC(=O)c1cc2c(cc1C)C(C)(C)C(C)CC2(C)C` (stereo not given) was tested, and the AC50 was inconclusive: 53.2 µM.
In the case of `ClC(Cl)=C(c1ccc(Cl)cc1)c1ccc(Cl)cc1`, the AC50 is reported as inconclusive: 4.87 µM.
For `Clc1ccc(C(c2ccccc2Cl)C(Cl)(Cl)Cl)cc1` (stereo not given), the AC50 was inconclusive: 10 µM.
`CC1(C)C(C=C(Cl)Cl)C1C(=O)OC(C#N)c1cccc(Oc2ccccc2)c1` (stereo not given) was tested, and the outcome was “inactive”.
In the case of `C#CCOS(=O)OC1CCCCC1Oc1ccc(C(C)(C)C)cc1` (stereo not given), the AC50 is reported as active: 1.6 µM.
`CC1(C)CCC(Cc2ccc(Cl)cc2)C1(O)Cn1cncn1` (stereo not given) was tested, and the AC50 was inconclusive: 10.9 µM.
`COc1ccc(C(c2ccc(OC)cc2)C(Cl)(Cl)Cl)cc1` was tested, and the AC50 was inconclusive: 9.95 µM.
For `COP(=O)(OC)O/C(=C\Cl)c1cc(Cl)c(Cl)cc1Cl`, the AC50 was inconclusive: 169 µM.
In the case of `CCOCN(C(=O)CCl)c1c(C)cccc1CC`, the AC50 is reported as inconclusive: 61.7 µM.
With `CC(C)(c1ccccc1)c1ccc(O)cc1` the AC50 was inconclusive: 10 µM.
With `CCCCOC(=O)c1ccccc1C(=O)OCCCC` the AC50 was inconclusive: 100 µM.
`CC1(C)C(C=C(Cl)Cl)C1C(=O)OC(C#N)c1ccc(F)c(Oc2ccccc2)c1` (stereo not given) was tested, and the AC50 was inconclusive: 0.85 µM.
`C[C@]12CCC(=O)C=C1CC[C@@H]1[C@@H]2CC[C@@]2(C)[C@H]1CC[C@]2(C)O` was tested, and the AC50 was active: 0.0018 µM.
`CC(C)CCCCCCCOC(=O)c1ccccc1C(=O)OCCCCCCCC(C)C` was tested, and the outcome was “inactive”.
For `COP(=S)(OC)Oc1ccc([N+](=O)[O-])c(C)c1`, the AC50 was inconclusive: 12.5 µM.
